Results from article PMC7819943, “Rice protein-binding microarrays: a tool to detect cis-acting elements near promoter regions in rice”.
This is one part of the list.

The chains behind the UniProt entries cited, without tags or fusion partners.
UniProt Q0JBA9, entry or part of it: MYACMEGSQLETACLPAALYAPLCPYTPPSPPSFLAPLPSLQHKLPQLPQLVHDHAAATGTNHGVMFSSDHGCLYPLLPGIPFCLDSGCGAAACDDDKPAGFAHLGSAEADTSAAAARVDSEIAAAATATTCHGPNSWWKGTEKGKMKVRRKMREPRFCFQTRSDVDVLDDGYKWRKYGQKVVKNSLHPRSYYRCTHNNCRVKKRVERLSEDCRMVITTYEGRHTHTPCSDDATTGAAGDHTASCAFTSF

Molecular target: OsWRKY34 (Oryza sativa, UniProt Q0JBA9 1-250)
Assay: protein-binding microarray (RPBM); PBS, 2% BSA, 51.3 ng/ul salmon testes DNA, 50 uM zinc acetate, 200 nM TF, 25 C, 1 h; high values mean tight binding
Conditions: protein: recombinant; tags: N-terminal polyhistidine and DsRed monomer fusion (pET32a); label: CyDye5-dUTP incorporated in the synthesized complementary strand; 3' TTTTT single-stranded linker to array surface; dsDNA, one strand shown
In short: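 Per-feature fluorescence intensity (arbitrary units), read on an Axon 4000B scanner, is the binding signal. Transcription factors carrying an N-terminal polyhistidine tag and DsRed fusion were expressed in E. coli BL21-CodonPlus and purified on Ni–NTA. A custom Agilent array, made double-stranded by primer extension with Cy5-dUTP and blocked with 2% BSA, was incubated with 200 nM protein in PBS, 2% BSA, salmon testes DNA and 50 µM zinc acetate at 25 °C for 1 h and then washed.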

Sequence | binding signal
AATATAACTCCCGCGACCCGGCCATCTCGTCTCCACCATTCGGAGTCACCTAGTGCAG | 9260 fluorescence intensity (a.u.)
TTGCCCGCTTATCGTTCTTTCTTCTTAAATATGTACTATCCGGAGTCACCTAGTGCAG | 9110 fluorescence intensity (a.u.)
CCAGACTTATTTGATTCTCTCTTCTTTATATTTATCTTTTCGGAGTCACCTAGTGCAG | 8950 fluorescence intensity (a.u.)
AGCTCTCTGCCAATCAAGCTACACACCTTGTTCCCCTACTCGGAGTCACCTAGTGCAG | 8270 fluorescence intensity (a.u.)
CGTAAGCACGTCCTGATTCTTGTTGCATTTCTCGTCCTGACGGAGTCACCTAGTGCAG | 11000 fluorescence intensity (a.u.)
TCCCTGCGTCGCAATGAATTGAGGGCTCATGGGCTTGGGGCGGAGTCACCTAGTGCAG | 8740 fluorescence intensity (a.u.)
GGTTGGATGGTTGGATTTGATGTGGATTTGAATTGTTATGCGGAGTCACCTAGTGCAG | 16300 fluorescence intensity (a.u.)
GGTTCTTGATTTTTCTTTTGGTTTGTTGTTTTGACGAATGCGGAGTCACCTAGTGCAG | 11400 fluorescence intensity (a.u.)
CGAAATTACCAAGTTACCCTCGCCATTTTGACGCCTCCGTCGGAGTCACCTAGTGCAG | 8620 fluorescence intensity (a.u.)
CATGTGAGTCCATGATAATCTTTTGGCCATTTTGTGCACCCGGAGTCACCTAGTGCAG | 8130 fluorescence intensity (a.u.)
GCATTGTTTTGTTTTGTTTTTAATTTTGAAGCGAAAAGAGCGGAGTCACCTAGTGCAG | 8790 fluorescence intensity (a.u.)
TCCCTCGTTCGCCGCGCGCACGCTTCTCGAACTGCTAAACCGGAGTCACCTAGTGCAG | 8370 ± 238 fluorescence intensity (a.u.)
TATTGGTATGTGTGAGATGTATGAAAAATAAATTTATTTTCGGAGTCACCTAGTGCAG | 8650 fluorescence intensity (a.u.)
CGCTTAGCCAACGCCCCGCCGACTTGGCCGCGCTCTCGCCCGGAGTCACCTAGTGCAG | 8760 fluorescence intensity (a.u.)
TGCATCTTATCCTTCAGTTAGTCAACGGTAGTTGGCAATACGGAGTCACCTAGTGCAG | 9130 fluorescence intensity (a.u.)
CTTTTGCAGAATACTTCTTTCTTGCCTCAATTATCATTAACGGAGTCACCTAGTGCAG | 10100 fluorescence intensity (a.u.)
CCACGTGTTTATTGCGGTTATTCTGACCTGTTGACCGAAACGGAGTCACCTAGTGCAG | 9210 fluorescence intensity (a.u.)
TTATGTTGTTTGTTTTTTTTTTTGCCAACAGAAGGTATCACGGAGTCACCTAGTGCAG | 8280 fluorescence intensity (a.u.)
CAAATCCTTTCTGTGTCTAACGTTTGACCGTCCGTCTTATCGGAGTCACCTAGTGCAG | 11100 fluorescence intensity (a.u.)
ACACCACTCTCCAATTCAATCTAGCTTCGTCTAGGATCCTCGGAGTCACCTAGTGCAG | 8320 fluorescence intensity (a.u.)
GCCTCTTTTGAGTAAATTTTTGTAGCCATCTGTTGTAATTCGGAGTCACCTAGTGCAG | 8660 fluorescence intensity (a.u.)

Fetched one by one from the entries so far, two records:
Sequence | binding signal
CCAGACTTATTTGATTCTCTCTTCTTTATATTTATCTTTTCGGAGTCACCTAGTGCAG | 8950 fluorescence intensity (a.u.)
TCCCTGCGTCGCAATGAATTGAGGGCTCATGGGCTTGGGGCGGAGTCACCTAGTGCAG | 8740 fluorescence intensity (a.u.)

Next records:

Sequence | binding signal
CGATTCTATTCCTAGGCCGCCCACACTATTGGGCCATCTCCGGAGTCACCTAGTGCAG | 8740 fluorescence intensity (a.u.)
TACTACTAGCTGTCTCATGAATCTTATGTTTTCTAGGGTCCGGAGTCACCTAGTGCAG | 8930 fluorescence intensity (a.u.)
GATGCTCCTAGTCCTATCCTAGTTCGTCGTCAACTCCGGCCGGAGTCACCTAGTGCAG | 8960 fluorescence intensity (a.u.)
AAACCCGTCCAACCCAACTCCACTCCATCCTCTGCAGCCGCGGAGTCACCTAGTGCAG | 9970 fluorescence intensity (a.u.)
TTGCAGTGGCATCGATCCAATTAACCCATCATCTTATTAGCGGAGTCACCTAGTGCAG | 8580 fluorescence intensity (a.u.)
AACAATGATTTTCCTTTTGACTTTTTTGCCATTGTTCAACCGGAGTCACCTAGTGCAG | 13300 fluorescence intensity (a.u.)
TTTTTTTCTGTATTTAATACTTCATACATGTATCCAAACACGGAGTCACCTAGTGCAG | 8550 fluorescence intensity (a.u.)
TGAATTTTTTTACTAACATTTGACCATTTGTTTTATTCAACGGAGTCACCTAGTGCAG | 8800 fluorescence intensity (a.u.)
TCCAAGGTCTCCGTCCACTTCATGGATTTTATTTTTTTCACGGAGTCACCTAGTGCAG | 11200 fluorescence intensity (a.u.)
ATCATGGACCAGCTCTTTTTCGTTTTCGAGATTCTTTGTCCGGAGTCACCTAGTGCAG | 13500 fluorescence intensity (a.u.)
GGCCGGCGACGCTGAACGGGGTGGGGTAGTCTGCTATTTACGGAGTCACCTAGTGCAG | 18000 fluorescence intensity (a.u.)
ATTTCGCCTGCTTATGGGTTGTGGGCGCTTGTGCACATATCGGAGTCACCTAGTGCAG | 13300 fluorescence intensity (a.u.)
GCGATACGACTTGATTCGGCCTCTCTCTCTCCGCGCGCGCCGGAGTCACCTAGTGCAG | 11400 fluorescence intensity (a.u.)
ATGGCCAACCGATGGGATCCATTCTACTTCTACACATATGCGGAGTCACCTAGTGCAG | 9430 fluorescence intensity (a.u.)
CATTTGTGGTTTGTACATATTTATATAAGTTATTATAAATCGGAGTCACCTAGTGCAG | 9060 fluorescence intensity (a.u.)
CTACTATCAATCAATCGACTCGTTTTTCATATTGCTTTTACGGAGTCACCTAGTGCAG | 10500 fluorescence intensity (a.u.)
ACAGAATGCTAAATTTCATCATCTTTCGGTGCTATTATTACGGAGTCACCTAGTGCAG | 8060 fluorescence intensity (a.u.)
TCGTTCGTTTCCATTTTTCCTCGTCCGCTCGCTCTCGTTCCGGAGTCACCTAGTGCAG | 10200 fluorescence intensity (a.u.)
GTGGACTTTTTTCCTTCTCCTTTTCCTTTGTGTTGTTTCGCGGAGTCACCTAGTGCAG | 8860 fluorescence intensity (a.u.)
TCGGTTAGTGTACTGTTCAAAGATTACTAAGCTTTGCCTTCGGAGTCACCTAGTGCAG | 8560 fluorescence intensity (a.u.)
TCGTCTCATTTCTGTATTTGCAGTCGAGAAATCTTCTTCTCGGAGTCACCTAGTGCAG | 10900 fluorescence intensity (a.u.)
